{"sequences": {"note": "Protein sequences, listed by entry. Tags and fused reporters are not part of them.", "UniProt Q99572, whole entry": "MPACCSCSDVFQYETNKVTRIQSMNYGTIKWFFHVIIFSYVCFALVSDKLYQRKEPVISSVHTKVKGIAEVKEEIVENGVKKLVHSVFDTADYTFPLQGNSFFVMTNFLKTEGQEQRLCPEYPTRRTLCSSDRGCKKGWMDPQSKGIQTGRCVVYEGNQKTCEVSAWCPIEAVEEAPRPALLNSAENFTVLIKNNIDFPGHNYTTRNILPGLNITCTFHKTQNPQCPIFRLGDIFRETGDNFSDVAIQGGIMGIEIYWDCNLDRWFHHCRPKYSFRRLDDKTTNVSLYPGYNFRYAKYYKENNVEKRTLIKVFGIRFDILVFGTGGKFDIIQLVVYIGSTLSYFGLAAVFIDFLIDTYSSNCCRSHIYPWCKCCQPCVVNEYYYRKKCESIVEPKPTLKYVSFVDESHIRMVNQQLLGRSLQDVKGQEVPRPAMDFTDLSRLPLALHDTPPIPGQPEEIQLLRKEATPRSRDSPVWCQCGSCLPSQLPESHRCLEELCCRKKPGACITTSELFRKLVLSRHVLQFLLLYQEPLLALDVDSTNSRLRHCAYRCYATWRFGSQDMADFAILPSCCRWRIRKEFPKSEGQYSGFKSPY"}, "source": "patent US8372865B2", "about": "“Dihydropyridone amides as P2X7 modulators” (Roche Palo Alto LLC, priority 2008, dated 2013)", "target": "P2X7 receptor (UniProt Q99572)", "assay": "pKi of Table 1 (assay not stated)", "note": "Structures were worked out from names or drawings and are uncertain.", "data": [{"compound": "CCc1cc2c(cc1NC(=O)C1=CNC(=O)C[C@H]1c1ccc(F)cc1)NC(=O)CO2", "values": [{"measurement": "pKi", "value": 5.775}]}]}
